± gives the standard deviation. The list shows a part of the results, in another mix than the full data. The uncertainty is large for many entries.

In this assay the test system is MIWI (PIWIL1) piRISC loaded with piRNA #2 (30 nt). In words: pre-steady-state target cleavage rate (min^-1); MIWI and MILI are mouse PIWI proteins and EfPiwi is from a freshwater sponge; tags in brackets are library labels; higher = faster piRNA-guided slicing of the target. As to conditions: guide: piRNA #2 5'p-UUAGGUAACCCAGUAGAUCCAGAGGAAUUC; auxiliary factor: 500 nM mouse GTSF1. In short, it runs like this:
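Cleave-'n-Seq: a transcribed, DNA-blocked target RNA library (0.1 nM) was mixed with 1 nM active affinity-purified piRISC carrying one synthetic guide, with or without 500 nM GTSF1 partner protein, in HEPES–potassium acetate buffer at 33 °C for 0–8 or 0–960 min. Uncleaved targets were sequenced and normalised to depth and to weakly complementary targets. Three trials were pooled, and k3 was capped at 0.0001 min^-1. The pre-steady-state cleavage rate came from a burst-and-steady-state fit.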
As to CAAUUCCUCUCGAUGUACUGGGUUACCUAA, the “pre-steady-state target cleavage rate” value came out at 0.672 ± 0.056.

Regarding CUUAAGGAGACCUUCUACUGGGAUUACCUAA, the “pre-steady-state target cleavage rate” value is 0.00379 ± 0.0061.

Consider CUUAAGGAGACCUAGAUGAGAGGUUACCUAA, for which the “pre-steady-state target cleavage rate” value is 0.00166 ± 0.0046.

CUUAAGGAGACCUAGUACUGGGCUACCUAA: the “pre-steady-state target cleavage rate” value turned out to be 0.00016 ± 0.021.

Consider CUUAAGGAGACCAUCUACUGGCUAACCUAA, for which the “pre-steady-state target cleavage rate” value worked out at 0.00112 ± 0.0049.

For CUUAAGGAGAGGAUCUACUGGGUUACCAA, the “pre-steady-state target cleavage rate” value was determined as 0.00301 ± 0.0031.

In the case of CUUAAGGAGAGGAUCUACUGCGUUACCUUA, the “pre-steady-state target cleavage rate” value worked out at 0.00283 ± 0.0049.

Turning to CUUAAGGAGACCUUCUACUUGGUUACCUAA, the “pre-steady-state target cleavage rate” value is 0.00134 ± 0.0057.

Regarding CUUAAGCUCUGGAUCUCUGGGUUACCUAA, the “pre-steady-state target cleavage rate” value is 0.00128 ± 0.0093.

In the case of CUUAAGGAGACCAUCUACUGCGUAACCUAA, the “pre-steady-state target cleavage rate” value worked out at 0.000792 ± 0.011.

For the sequence CUUAAGGAGACCAGUCUACUGGGUUACCUAA, the “pre-steady-state target cleavage rate” value stood at 0.00212 ± 0.0039.

As for CAAUUCCUGUGGAUCUACAGGGUUACCUAA, the “pre-steady-state target cleavage rate” value was determined as 0.268 ± 0.036.

Take CUUAAGGAGUGCUUCUACUGGGUUACCUAA: the “pre-steady-state target cleavage rate” value was determined as 0.00285 ± 0.0038.

In the case of CUUAACCUCUGGAUCUAACUGGGUUACCUAA, the “pre-steady-state target cleavage rate” value amounted to 0.00121 ± 0.0063.

In the case of CUUAAGGACUGGAUCUACUGGGAAACCUAA, the “pre-steady-state target cleavage rate” value was 0.00495 ± 0.013.

In the case of CUUAAGGAGAGGAUCUACUGGGUUACCAUAA, the “pre-steady-state target cleavage rate” value was 0.00299 ± 0.0054.

With CUUAAGGAGACCUUCUACUGGGUUACCUAAA, the “pre-steady-state target cleavage rate” value is 0.00262 ± 0.005.

CUUUUCCUCUGGAUCAUGUGGGUUACCUAA: the “pre-steady-state target cleavage rate” value worked out at 0.000691 ± 0.012.

Consider CUUAACCUCUGGAUCUUACUGGGUUACCUAA, for which the “pre-steady-state target cleavage rate” value is 0.0021 ± 0.0039.

For CUUAUCCUCUGGAUCAUGUGGGUUACCUAA, the “pre-steady-state target cleavage rate” value is 0.000539 ± 0.013.

As for CUUAAGGAGACCAUCUACUCCGUUACCUAA, the “pre-steady-state target cleavage rate” value was 0.00266 ± 0.0037.

Take CUUAAGGAGACGAUCAACAGGGUUACCUAA: the “pre-steady-state target cleavage rate” value turned out to be 0.000326 ± 0.022.

Turning to CUUAUCCUCUGGAUCUAGCUGGGUUACCUAA, the “pre-steady-state target cleavage rate” value was 0.000853 ± 0.0089.

For CUUAAGGACUGGAACUACAGGGUUACCUAA, the “pre-steady-state target cleavage rate” value was determined as 0.00493 ± 0.013.

Take CUUAAGGAGACGAUCUAAUGGGUUACCUAA: the “pre-steady-state target cleavage rate” value came to 0.00137 ± 0.0058.

For GAAUUCCUCUGGAACUACUGGGUUACGUAA, the “pre-steady-state target cleavage rate” value stood at 0.657 ± 0.04.

As for CUUAAGGAGACCUACUACUGGGUUACUAA, the “pre-steady-state target cleavage rate” value was 0.00166 ± 0.0046.

CUAUUCCUCUGGUUCUACUGGGUUACGUAA: the “pre-steady-state target cleavage rate” value is 0.629 ± 0.059.

For the sequence CUUAAGGAGACGAUCUACUGGUUACCUAA, the “pre-steady-state target cleavage rate” value was determined as 0.0011 ± 0.0047.

Take CUUAAGGAGAGCAUCUACUGGGUUUCCUAA: the “pre-steady-state target cleavage rate” value stood at 0.00188 ± 0.0056.

GAAUACCUCAGGAUCUACUGGGUUACCUAA: the “pre-steady-state target cleavage rate” value came out at 0.421 ± 0.043.

Consider CUUAAGGAGACCUUCUACUGGCUUACCAAA, for which the “pre-steady-state target cleavage rate” value is 0.00152 ± 0.0081.

For the sequence CUUAAGGACUGGAUGAACUGGGUUACCUAA, the “pre-steady-state target cleavage rate” value amounted to 0.00396 ± 0.013.

Take CUUAAGGAGAGGAUCUACAUGGGUUACCUAA: the “pre-steady-state target cleavage rate” value stood at 0.000156 ± 0.035.

As to CUUAAGGAGAGGAUCUAGUGGGUUUCCUAA, the “pre-steady-state target cleavage rate” value was 0.000497 ± 0.019.

Regarding CUUAAGGAGACCAUCACUGGGUUACCUAA, the “pre-steady-state target cleavage rate” value was determined as 0.00178 ± 0.0054.

As for CUUAAGGAGAGGAUCUCACUGGGUUACCUAA, the “pre-steady-state target cleavage rate” value was 0.000285 ± 0.021.

As for CUUAAGGAGACCUACUACUGGGUUACCAUAA, the “pre-steady-state target cleavage rate” value turned out to be 0.00213 ± 0.0041.

For CUUAAGGAGACCUUCUACUGGGUUACCCAA, the “pre-steady-state target cleavage rate” value turned out to be 0.00288 ± 0.0058.

CUUAAGGAGACCAUCUACUGGGAUUACCUAA: the “pre-steady-state target cleavage rate” value is 0.000678 ± 0.016.

Consider CUUAAGGAGACGAUGCUACUGGGUUACCUAA, for which the “pre-steady-state target cleavage rate” value was found to be 0.000844 ± 0.008.

CUUAAGGACUGGAUCUUCUGGGUAACCUAA: the “pre-steady-state target cleavage rate” value was 0.00388 ± 0.013.

As to CUUAAGGAGUGGAUCUACUGGGUUUCCAAA, the “pre-steady-state target cleavage rate” value was found to be 0.000258 ± 0.02.

As for CUUAAGGACGGGAUCUACUGGGUUACCUAA, the “pre-steady-state target cleavage rate” value worked out at 0.0681 ± 0.038.

Regarding CUUAAGGAGACCUACUACUGCGUUACCAAA, the “pre-steady-state target cleavage rate” value is 0.00111 ± 0.0066.

CUUAAGGAGACGACUCUACUGGGUUACCUAA: the “pre-steady-state target cleavage rate” value stood at 0.000635 ± 0.0089.

Consider CUUAAGGAGACCAACUACUGGCUUACCUAA, for which the “pre-steady-state target cleavage rate” value was determined as 0.00172 ± 0.0054.

In the case of CUUAAGGAGUGGAUCUAGUGGGUUACCAAA, the “pre-steady-state target cleavage rate” value amounted to 0.00194 ± 0.0056.

Turning to CUUAAGGACUCGAUCUACUGGGAUACCUAA, the “pre-steady-state target cleavage rate” value was found to be 0.0027 ± 0.0088.

For the sequence CUUAAGGAGACCUACUACUGGGUAACCUAA, the “pre-steady-state target cleavage rate” value stood at 0.000935 ± 0.0084.

In the case of CAAUUCCUCAGGAUCUUCUGGGUUACCUAA, the “pre-steady-state target cleavage rate” value was found to be 0.485 ± 0.058.

For CUUAAGGACUGGUUCUACUGGGUUACCAAA, the “pre-steady-state target cleavage rate” value was determined as 0.0104 ± 0.015.

Regarding CUUAAGGAGACCUAGUACUGGGUUACAUAA, the “pre-steady-state target cleavage rate” value is 0.00145 ± 0.0042.

Regarding CUUAAGGAGACCAUCUACUGGGUUACCUGAA, the “pre-steady-state target cleavage rate” value came out at 0.000912 ± 0.016.

As for CUUAAGGAGACCUACUACUGGGUUAACCUAA, the “pre-steady-state target cleavage rate” value turned out to be 0.00132 ± 0.0078.

Regarding CUUAAGGAGUGCAUCUAGUGGGUUACCUAA, the “pre-steady-state target cleavage rate” value was 0.00123 ± 0.0063.

On to CUUAAGGAGACGAUCUACGUGGGUUACCUAA, for which the “pre-steady-state target cleavage rate” value was 0.000959 ± 0.011.

Regarding CUUAAGGAGACCUACUACUGGGUAACGUAA, the “pre-steady-state target cleavage rate” value came out at 0.000607 ± 0.012.

Regarding “CUAUUCCUCUGGAUCUACUGGGUAUGGAUA [g8:g28:cont:t1A]”, the “pre-steady-state target cleavage rate” value came to 0.00177 ± 0.0074.

Consider CUUAAGGAGACCAACUACUGGGUAACCUAA, for which the “pre-steady-state target cleavage rate” value stood at 0.000747 ± 0.011.

With CUUAAGGAGACCUAGAACUGGGUUGCCUAA, the “pre-steady-state target cleavage rate” value is 0.000496 ± 0.016.

In the case of CUUAAGGUCUGGAUCUACUAGGGUUACCUAA, the “pre-steady-state target cleavage rate” value turned out to be 0.00107 ± 0.0069.

On to GAAUUCCUCUGGAUCUACUCGCUUACCUAA, for which the “pre-steady-state target cleavage rate” value turned out to be 0.00392 ± 0.0028.

Turning to CUUAAGGAGACCUAGAACUGGGUUACCUAA, the “pre-steady-state target cleavage rate” value stood at 0.000132 ± 0.038.

Take CUUAAGGAGACCUACUACUGGGUUACCUCAA: the “pre-steady-state target cleavage rate” value turned out to be 0.0014 ± 0.0063.

Turning to CUUAAGGAGACCUAGUACUGGGUUACCUA, the “pre-steady-state target cleavage rate” value was determined as 0.0012 ± 0.0041.

Consider CUUAAGGAGACCUAGAUCUGGGUUACCAAA, for which the “pre-steady-state target cleavage rate” value amounted to 0.000506 ± 0.012.

In the case of “CUUAAGGAGACCUAGAUGACGGUUACCUAC [g2:g10:cont:t1C]”, the “pre-steady-state target cleavage rate” value was found to be 0.000558 ± 0.011.

For CUUAAGGUCUGGAUCUACUCGGUAACCUAA, the “pre-steady-state target cleavage rate” value stood at 0.000327 ± 0.039.

For the sequence CUUAAGGAGUGCAUCUACUGGGUUUCCUAA, the “pre-steady-state target cleavage rate” value was 0.00192 ± 0.0042.

As to CUUAUCCUCUGGAUCUACUGCCAUACCUAA, the “pre-steady-state target cleavage rate” value came to 0.00396 ± 0.0048.

The values above are taken from the supplement of paper PMC10338343.
